{"source": "PubChem BioAssay AID504444", "about": "(National Center for Advancing Translational Sciences (NCATS), 2011)", "note": "Hit rate of the full screen: of about 360,000 compounds, about 7,500 (2.1%) were called active. The inconclusive results got no clear call from the source; some entries with a clear call stand among them for comparison. Calls follow the shape of the dose curve; as a rule, active = well fitted inhibition curve with a large enough effect; inconclusive = small, poorly fitted or top-dose-only effect, or effect the other way; inactive = flat fitted curve, though single readings scatter. A potency beside an inconclusive call is a rough fit, not a confirmed value. Potency is read from the fitted curve at half-maximal effect.", "data": [{"assay": "Nrf2 qHTS screen for inhibitors; also: nearly all actives have a fitted effect of over 60% in size", "settings": "A549 ARE-Fluc reporter, luciferase luminescence, 18-24 h; series mostly up to 46 µM", "method_in_brief": "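Reporter: ARE-Fluc in A549. Exposure: 18-24 h, 37 °C, 5% CO2, 5% FBS OPTI-MEM. Readouts: fluorescent cytotoxicity (CellTiter-Fluor), then luminescent Nrf2 signal after BugLite.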", "values": [{"molecule": "O=C(Nc1ccccc1Cl)N1CCN(c2ccc3nnc(-c4ccccc4)n3n2)CC1", "Potency": "inconclusive: 14.6 µM [falling, single point]"}, {"molecule": "CC(C(=O)Nc1ccccc1)c1ccc(-c2ccccc2)c(F)c1", "note": "(stereo not drawn)", "Potency": "active: 10.3 µM"}, {"molecule": "O=c1[nH]c(-c2ccc(F)cc2)nc2c1sc(=S)n2-c1ccccc1", "Potency": "inconclusive: 25.9 µM [falling, single point]"}, {"molecule": "Fc1ccc(-c2nn(-c3ccccc3)cc2CNCc2ccccc2)cc1", "Potency": "inconclusive: 13 µM [activator, single point]"}, {"molecule": "Cn1cc(CN2CCC(n3nccc3NC(=O)c3ccccc3Cl)CC2)c2ccccc21", "Potency": "inactive"}, {"molecule": "CC1(C)C2CCC1(CS(=O)(=O)Nc1ccc(S(=O)(=O)NC3CCCCC3)cc1)C(=O)C2", "note": "(stereo not drawn)", "Potency": "inconclusive: 20.6 µM [falling, partial curve, poor fit]"}, {"molecule": "CCOc1ccc(C2c3c(ncn(-c4ccccc4)c3=N)Oc3ccc4ccccc4c32)cc1OCC", "note": "(stereo not drawn)", "Potency": "active: 16.4 µM"}, {"molecule": "COc1cccc(CNC(=O)C2CCCN(S(C)(=O)=O)C2)c1", "note": "(stereo not drawn)", "Potency": "inconclusive: 4.11 µM [falling, full curve, poor fit]"}, {"molecule": "COc1cc(C(=O)Nc2nnc(S(=O)(=O)N(C)c3ccccc3)s2)cc(OC)c1OC", "Potency": "inconclusive: 0.651 µM [activator, partial curve]"}, {"molecule": "CN(C)/C=N/C(=S)Nc1ccccc1F", "Potency": "inconclusive: 8.2 µM [activator, partial curve, poor fit]"}, {"molecule": "CCC1(C)NC(=O)N(CC(=O)Nc2sc3c(c2C(=O)OC)CCCCC3)C1=O", "note": "(stereo not drawn)", "Potency": "inconclusive: 23.1 µM [falling, single point]"}, {"molecule": "Cc1cc2c3c(c1C)C(=O)C(=O)N3C(C)(C)CC2C", "note": "(stereo not drawn)", "Potency": "inconclusive: 2.59 µM [activator, full curve, poor fit]"}, {"molecule": "c1ccc(-c2ccccc2-c2nc(-c3ccncc3)no2)cc1", "Potency": "inactive"}, {"molecule": "O=c1c2ccccc2nc(SCCN2CCCCC2)n1CCc1ccccc1", "Potency": "inconclusive: 18.4 µM [activator, partial curve]"}, {"molecule": "COc1cccc(C(=O)NCCSCc2ccccc2Cl)c1", "Potency": "inconclusive: 16.4 µM [falling, single point]"}, {"molecule": "COc1ccc(CNC(=O)c2cc3c(=O)[nH]c4ccc(C)cc4c3s2)c(OC)c1", "Potency": "inconclusive: 0.651 µM [falling, full curve, poor fit]"}, {"molecule": "CC(C)(C)CC(=O)Nc1ccc(-c2cn3cccnc3n2)cc1", "Potency": "inconclusive: 8.2 µM [activator, partial curve]"}, {"molecule": "CC(C)(C)OC(=O)CNC(=O)c1[nH]cnc1C(=O)NC(c1ccccc1)c1ccccc1", "Potency": "inconclusive: 29.1 µM [falling, single point]"}, {"molecule": "COCCn1c(C)cc(C(=O)COC(=O)c2cc3c(s2)CCC3)c1C", "Potency": "inconclusive: 32.6 µM [activator, single point]"}, {"molecule": "CCCCn1c(SCC(=O)/C(C#N)=C(\\C)N)nc2ccccc2c1=O", "Potency": "inconclusive: 23.1 µM [falling, single point]"}, {"molecule": "O=[N+]([O-])c1ccc(/C=N/Nc2nc(N3CCCCCC3)nc(N3CCCCCC3)n2)o1", "Potency": "inconclusive: 29.1 µM [falling, single point]"}, {"molecule": "Cc1ccc(NC(N)=S)cc1C", "Potency": "inactive"}, {"molecule": "C[C@H](C[C@H](O)[C@H]1OC1(C)C)C1=C2C[C@H](O)C3[C@@]4(C)CCC(=O)C(C)(C)C4CC[C@]3(C)[C@@]2(C)CC1", "note": "(stereo partly drawn)", "Potency": "inconclusive: 20.6 µM [falling, single point]"}, {"molecule": "CCCSc1nc2sc3c(c2c(=O)n1-c1ccccc1)CCC(C)C3", "note": "(stereo not drawn)", "Potency": "inactive"}, {"molecule": "COc1ccc(NS(=O)(=O)c2ccc3c(c2)N(C(C)=O)CC(C)S3)c(OC)c1", "note": "(stereo not drawn)", "Potency": "inactive"}, {"molecule": "CCOc1ccc2nc(Cl)c(C3CC(c4ccco4)=NN3S(C)(=O)=O)cc2c1", "note": "(stereo not drawn)", "Potency": "inactive"}, {"molecule": "COc1ccc(CN(Cc2cc3ccc(C)cc3[nH]c2=O)Cc2nnnn2C2CCCC2)cc1", "Potency": "inconclusive: 29.1 µM [falling, single point]"}, {"molecule": "O=C(N/N=C/c1ccc([N+](=O)[O-])o1)c1cc2c(ccc3ccccc32)o1", "Potency": "inconclusive: 5.8 µM [falling, partial curve]"}, {"molecule": "COC(=O)c1ccc(OCC2c3cc(OC)c(OC)cc3CCN2C(=O)C2CC2)cc1", "note": "(stereo not drawn)", "Potency": "inconclusive: 29.1 µM [falling, single point]"}, {"molecule": "N#Cc1ccccc1Oc1ccc(S(=O)(=O)N2CCCCC2)cn1", "Potency": "inactive"}, {"molecule": "CC(Nc1ccccc1CO)C(=O)Nc1cccc(Cl)c1Cl", "note": "(stereo not drawn)", "Potency": "inactive"}, {"molecule": "Cc1ccc(C)c(-c2nnc(NC(=O)c3ccc([N+](=O)[O-])o3)o2)c1", "Potency": "inactive"}, {"molecule": "COc1cc2nc(CN3CCN(S(=O)(=O)c4ccccc4C(F)(F)F)CC3)[nH]c(=O)c2cc1OC", "Potency": "inactive"}, {"molecule": "CC(C)CN(C(=O)COC(=O)Cc1c[nH]c2ccccc12)c1c(N)n(Cc2ccccc2)c(=O)[nH]c1=O", "Potency": "inconclusive: 32.6 µM [falling, single point]"}, {"molecule": "Cc1cccn2cc(-c3ccccc3)nc12", "Potency": "inconclusive: 2.06 µM [activator, full curve]"}, {"molecule": "O=C(c1cccs1)N1CCCC(c2ccccc2)C1", "note": "(stereo not drawn)", "Potency": "inconclusive: 2.59 µM [falling, partial curve]"}, {"molecule": "CCCCN1CC(COc2ccccc2)Oc2cccc(F)c2S1(=O)=O", "note": "(stereo not drawn)", "Potency": "inactive"}, {"molecule": "Cc1ccc(CCNC(=O)c2cc(-c3ccccc3)n[nH]2)cc1", "Potency": "inconclusive: 6.51 µM [activator, single point]"}, {"molecule": "CCC1=C(c2ccc(C)cc2)S(=O)(=O)N=C1N1CCC(C(=O)Nc2ccccc2C(=O)OC)CC1", "Potency": "inconclusive: 20.6 µM [falling, partial curve]"}, {"molecule": "COc1ccc(CNC(=O)CCc2c(C)nn(-c3ccc(N4CCOCC4)nn3)c2C)c(OC)c1", "Potency": "inconclusive: 20.6 µM [activator, single point]"}, {"molecule": "COc1ccc(-c2noc(-c3cccs3)n2)cc1OC", "Potency": "inconclusive: 7.31 µM [activator, partial curve]"}, {"molecule": "CC(C)c1ccc(N(C(=O)c2ccco2)C(C(=O)NC2CCCC2)c2ccncc2)cc1", "note": "(stereo not drawn)", "Potency": "inconclusive: 14.6 µM [activator, partial curve]"}, {"molecule": "CCOC(=O)c1cc(CC)sc1NC(=O)c1cc(OC)c(OC)c(OC)c1", "Potency": "inconclusive: 22.4 µM [falling, partial curve, poor fit]"}, {"molecule": "Cc1cccc(C(=O)Nc2ccc(O)c3c(=O)cc(-c4ccccc4Cl)oc23)c1", "Potency": "inconclusive: 6.51 µM [falling, single point]"}, {"molecule": "Cc1ccc(OCc2cc(C(=O)N(C)Cc3cnc4ccccn34)no2)cc1C", "Potency": "inconclusive: 29.1 µM [falling, single point]"}, {"molecule": "O=C(CCCN1C(=O)/C(=C/c2ccc3c(c2)OCO3)SC1=S)Nc1ccc(C(=O)O)cc1", "Potency": "active: 10.3 µM"}, {"molecule": "Nc1nc(NC(=O)c2ccccc2)nn1-c1ccccc1", "Potency": "inconclusive: 25.9 µM [activator, single point]"}, {"molecule": "CCCCCCCCCCCC(=O)NC(C(=O)O)C(O)c1ccccc1", "note": "(stereo not drawn)", "Potency": "inconclusive: 6.51 µM [falling, single point]"}, {"molecule": "COc1cc(OC)c2c(-c3cccc(-c4ccc(NC(C)=O)cc4)c3)cc(=O)oc2c1", "Potency": "inconclusive: 9.2 µM [falling, single point]"}, {"molecule": "O=C(O)CCN1C(=O)/C(=C/c2cn(-c3ccccc3)nc2-c2cccs2)SC1=S", "Potency": "inconclusive: 16.4 µM [falling, partial curve]"}, {"molecule": "COc1ccc(-n2nc(C(=O)NCC(=O)N3CC(C)CC(C)C3)c3ccccc3c2=O)c(OC)c1", "note": "(stereo not drawn)", "Potency": "inconclusive: 8.2 µM [activator, partial curve, poor fit]"}, {"molecule": "O=[S+]([O-])(c1c(F)cccc1F)N1CCN([S+](=O)([O-])c2c(F)c(F)c(F)c(F)c2F)CC1", "Potency": "inactive"}, {"molecule": "Cc1c(N=C2N=C(NC(=O)c3cccs3)c3ccccc32)c(=O)n(-c2ccccc2)n1C", "Potency": "inconclusive: 23.1 µM [falling, single point]"}, {"molecule": "CCc1ccc(NC(=O)CSc2ccc(-c3sc(C)nc3C)nn2)cc1", "Potency": "inconclusive: 16.4 µM [falling, partial curve, poor fit]"}, {"molecule": "CC(C)c1ccc(OCC(=O)N2CCN(C(=O)c3ccco3)CC2)cc1", "Potency": "inconclusive: 1.3 µM [falling, partial curve, poor fit]"}, {"molecule": "O=c1oc2ccccc2c(NC2CCCCC2)c1NS(=O)(=O)c1ccc(F)cc1", "Potency": "inconclusive: 29.1 µM [falling, single point]"}, {"molecule": "CCCC12CN3CC(CCC)(CN(C1)C3c1ccc(OCc3ccccc3)cc1)C2=O", "note": "(stereo not drawn)", "Potency": "inconclusive: 23.1 µM [activator, single point]"}, {"molecule": "CC(C)CCOc1ccc(C(=O)N2CCN(c3ncccn3)CC2)cc1", "Potency": "inconclusive: 16.4 µM [falling, partial curve, poor fit]"}, {"molecule": "CCCOC(=O)c1ccc(Oc2cn[nH]c2-c2ccc(O)cc2O)cc1", "Potency": "inconclusive: 20.6 µM [falling, single point]"}, {"molecule": "O=C(NC1CC1)c1ccc2c(c1)C1C3CCC(C3)C1C(c1ccccc1)N2", "note": "(stereo not drawn)", "Potency": "inconclusive: 23.1 µM [falling, partial curve, poor fit]"}, {"molecule": "Cc1ccc(NS(=O)(=O)c2ccc(OCC(=O)N3CCOCC3)cc2)cc1", "Potency": "inconclusive: 32.6 µM [falling, partial curve, poor fit]"}, {"molecule": "O=C(CN1C(=O)NC2(CCOc3ccccc32)C1=O)Nc1cccc([N+](=O)[O-])c1", "note": "(stereo not drawn)", "Potency": "inconclusive: 13 µM [falling, partial curve, poor fit]"}, {"molecule": "CCN1C(=O)[C@@H]2[C@@H](c3ccc(-c4ccc5c(c4)OCO5)cc3)N3CCCC[C@@]3(C(=O)OC)[C@@H]2C1=O", "Potency": "inconclusive: 25.9 µM [falling, partial curve, poor fit]"}]}]}
